Assay results: the supplement of paper PMC10849652
Some of the results follow.

Amino acid sequences for entries named in this document (tags omitted). A change or cut given only in a name is not applied to a line headed by its entry.
UniProt Q9Y385: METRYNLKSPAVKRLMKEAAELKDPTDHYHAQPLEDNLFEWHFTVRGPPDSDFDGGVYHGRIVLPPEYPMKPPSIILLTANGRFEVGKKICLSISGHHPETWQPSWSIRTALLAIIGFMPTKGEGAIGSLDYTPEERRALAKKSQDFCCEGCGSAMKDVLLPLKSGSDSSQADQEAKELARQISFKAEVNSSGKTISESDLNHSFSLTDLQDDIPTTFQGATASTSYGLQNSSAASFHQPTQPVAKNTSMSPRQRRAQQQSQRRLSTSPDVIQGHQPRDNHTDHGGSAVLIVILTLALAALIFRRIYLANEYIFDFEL
UniProt P62256: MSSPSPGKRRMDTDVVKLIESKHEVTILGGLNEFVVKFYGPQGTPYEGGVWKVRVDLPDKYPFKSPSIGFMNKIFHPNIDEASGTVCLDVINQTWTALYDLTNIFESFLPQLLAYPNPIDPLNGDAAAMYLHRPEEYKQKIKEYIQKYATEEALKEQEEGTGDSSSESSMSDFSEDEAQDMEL
UniProt Q9BQE3, whole entry, looked up: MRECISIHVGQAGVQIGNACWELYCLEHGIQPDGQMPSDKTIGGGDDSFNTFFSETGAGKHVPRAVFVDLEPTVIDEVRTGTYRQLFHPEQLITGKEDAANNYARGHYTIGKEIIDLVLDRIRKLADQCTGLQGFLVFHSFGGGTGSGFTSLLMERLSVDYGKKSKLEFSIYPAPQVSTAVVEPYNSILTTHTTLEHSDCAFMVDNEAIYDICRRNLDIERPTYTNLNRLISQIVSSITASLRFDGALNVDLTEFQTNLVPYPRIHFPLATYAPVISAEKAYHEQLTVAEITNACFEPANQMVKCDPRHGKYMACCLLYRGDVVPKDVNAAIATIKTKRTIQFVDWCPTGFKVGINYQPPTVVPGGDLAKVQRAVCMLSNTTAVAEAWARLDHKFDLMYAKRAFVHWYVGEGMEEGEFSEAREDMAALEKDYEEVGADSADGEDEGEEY
UniProt P63279, whole entry, looked up: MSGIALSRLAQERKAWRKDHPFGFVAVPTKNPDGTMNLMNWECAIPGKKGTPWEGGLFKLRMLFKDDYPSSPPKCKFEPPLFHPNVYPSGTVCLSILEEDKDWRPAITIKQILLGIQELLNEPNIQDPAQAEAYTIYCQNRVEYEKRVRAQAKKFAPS
UniProt Q14157: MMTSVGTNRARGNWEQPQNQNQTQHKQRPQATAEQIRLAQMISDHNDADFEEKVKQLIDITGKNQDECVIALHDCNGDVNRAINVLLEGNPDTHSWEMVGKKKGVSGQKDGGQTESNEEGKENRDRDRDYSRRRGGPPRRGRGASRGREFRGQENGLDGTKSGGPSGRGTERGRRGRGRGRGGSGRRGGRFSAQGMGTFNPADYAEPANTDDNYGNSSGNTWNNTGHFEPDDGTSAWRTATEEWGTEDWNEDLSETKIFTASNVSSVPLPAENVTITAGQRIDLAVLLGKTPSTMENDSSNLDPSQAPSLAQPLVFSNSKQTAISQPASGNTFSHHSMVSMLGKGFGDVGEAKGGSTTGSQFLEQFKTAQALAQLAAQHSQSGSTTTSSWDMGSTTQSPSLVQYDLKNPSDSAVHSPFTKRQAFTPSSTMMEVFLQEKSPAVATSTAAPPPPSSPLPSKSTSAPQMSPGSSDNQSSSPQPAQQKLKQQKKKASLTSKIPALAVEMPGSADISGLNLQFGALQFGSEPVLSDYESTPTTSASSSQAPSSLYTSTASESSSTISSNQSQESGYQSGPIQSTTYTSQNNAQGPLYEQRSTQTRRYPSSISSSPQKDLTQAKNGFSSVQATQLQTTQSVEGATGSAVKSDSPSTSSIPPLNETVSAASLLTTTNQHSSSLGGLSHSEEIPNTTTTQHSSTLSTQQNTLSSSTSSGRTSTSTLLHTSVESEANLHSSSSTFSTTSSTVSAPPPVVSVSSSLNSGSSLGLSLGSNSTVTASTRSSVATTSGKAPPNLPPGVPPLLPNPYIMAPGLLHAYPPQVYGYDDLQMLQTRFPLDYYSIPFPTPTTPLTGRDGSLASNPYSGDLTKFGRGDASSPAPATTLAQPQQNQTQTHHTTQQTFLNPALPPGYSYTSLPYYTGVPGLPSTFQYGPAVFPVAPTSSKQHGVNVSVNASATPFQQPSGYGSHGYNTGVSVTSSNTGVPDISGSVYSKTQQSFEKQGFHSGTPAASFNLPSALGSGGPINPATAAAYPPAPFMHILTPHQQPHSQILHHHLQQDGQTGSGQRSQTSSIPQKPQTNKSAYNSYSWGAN
UniProt O43396: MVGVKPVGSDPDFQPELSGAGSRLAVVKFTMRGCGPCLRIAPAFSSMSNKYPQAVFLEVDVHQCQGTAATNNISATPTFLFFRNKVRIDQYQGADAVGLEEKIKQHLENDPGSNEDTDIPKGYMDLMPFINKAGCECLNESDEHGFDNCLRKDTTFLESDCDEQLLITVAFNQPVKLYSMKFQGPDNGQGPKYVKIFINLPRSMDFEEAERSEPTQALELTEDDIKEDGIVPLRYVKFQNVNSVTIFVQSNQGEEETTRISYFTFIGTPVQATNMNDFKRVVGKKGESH
UniProt Q9H3M7: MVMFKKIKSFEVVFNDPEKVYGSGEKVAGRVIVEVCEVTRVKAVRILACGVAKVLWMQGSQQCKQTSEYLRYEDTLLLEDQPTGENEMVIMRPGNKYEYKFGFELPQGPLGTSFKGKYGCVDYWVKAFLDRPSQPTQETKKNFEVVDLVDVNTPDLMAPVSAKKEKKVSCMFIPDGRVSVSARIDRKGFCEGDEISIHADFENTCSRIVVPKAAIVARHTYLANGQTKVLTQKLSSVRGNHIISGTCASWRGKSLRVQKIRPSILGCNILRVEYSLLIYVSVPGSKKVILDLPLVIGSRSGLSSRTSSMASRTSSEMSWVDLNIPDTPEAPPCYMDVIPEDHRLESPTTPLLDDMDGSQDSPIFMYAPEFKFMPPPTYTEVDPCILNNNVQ
UniProt Q9NZ09: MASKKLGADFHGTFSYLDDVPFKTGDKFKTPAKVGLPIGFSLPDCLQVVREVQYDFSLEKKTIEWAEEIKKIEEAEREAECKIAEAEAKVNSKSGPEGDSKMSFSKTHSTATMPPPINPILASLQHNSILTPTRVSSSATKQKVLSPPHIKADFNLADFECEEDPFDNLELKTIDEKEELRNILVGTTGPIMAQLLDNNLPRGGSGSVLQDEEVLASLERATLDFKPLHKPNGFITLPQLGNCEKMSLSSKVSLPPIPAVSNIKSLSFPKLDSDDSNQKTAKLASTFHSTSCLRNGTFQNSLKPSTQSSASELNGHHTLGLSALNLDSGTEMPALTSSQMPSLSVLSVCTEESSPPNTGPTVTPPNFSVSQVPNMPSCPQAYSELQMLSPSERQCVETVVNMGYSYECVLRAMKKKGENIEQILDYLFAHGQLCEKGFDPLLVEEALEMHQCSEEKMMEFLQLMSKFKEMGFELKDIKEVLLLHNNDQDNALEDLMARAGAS
UniProt Q99816: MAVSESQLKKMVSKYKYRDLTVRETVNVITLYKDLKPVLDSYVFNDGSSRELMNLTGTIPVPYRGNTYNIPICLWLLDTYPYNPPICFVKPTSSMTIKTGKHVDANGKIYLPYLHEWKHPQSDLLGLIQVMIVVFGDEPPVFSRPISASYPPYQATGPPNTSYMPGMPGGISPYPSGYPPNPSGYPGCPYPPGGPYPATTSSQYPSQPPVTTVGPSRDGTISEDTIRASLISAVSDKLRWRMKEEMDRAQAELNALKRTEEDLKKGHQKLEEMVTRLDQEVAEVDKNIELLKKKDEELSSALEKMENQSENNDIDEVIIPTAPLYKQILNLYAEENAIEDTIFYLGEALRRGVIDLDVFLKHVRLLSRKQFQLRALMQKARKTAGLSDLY
UniProt P68363, whole entry, looked up: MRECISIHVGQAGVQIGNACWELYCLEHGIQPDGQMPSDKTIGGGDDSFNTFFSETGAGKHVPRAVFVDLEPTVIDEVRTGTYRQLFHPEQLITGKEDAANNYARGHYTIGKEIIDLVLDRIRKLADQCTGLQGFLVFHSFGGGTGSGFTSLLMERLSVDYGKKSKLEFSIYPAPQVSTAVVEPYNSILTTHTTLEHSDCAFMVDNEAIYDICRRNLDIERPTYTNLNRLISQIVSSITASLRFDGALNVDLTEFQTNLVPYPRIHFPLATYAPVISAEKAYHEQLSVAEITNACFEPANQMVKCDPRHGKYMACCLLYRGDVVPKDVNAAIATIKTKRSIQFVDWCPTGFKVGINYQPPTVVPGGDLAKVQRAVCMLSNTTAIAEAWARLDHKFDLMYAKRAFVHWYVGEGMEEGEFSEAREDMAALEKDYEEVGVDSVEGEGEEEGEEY
UniProt Q9NV66: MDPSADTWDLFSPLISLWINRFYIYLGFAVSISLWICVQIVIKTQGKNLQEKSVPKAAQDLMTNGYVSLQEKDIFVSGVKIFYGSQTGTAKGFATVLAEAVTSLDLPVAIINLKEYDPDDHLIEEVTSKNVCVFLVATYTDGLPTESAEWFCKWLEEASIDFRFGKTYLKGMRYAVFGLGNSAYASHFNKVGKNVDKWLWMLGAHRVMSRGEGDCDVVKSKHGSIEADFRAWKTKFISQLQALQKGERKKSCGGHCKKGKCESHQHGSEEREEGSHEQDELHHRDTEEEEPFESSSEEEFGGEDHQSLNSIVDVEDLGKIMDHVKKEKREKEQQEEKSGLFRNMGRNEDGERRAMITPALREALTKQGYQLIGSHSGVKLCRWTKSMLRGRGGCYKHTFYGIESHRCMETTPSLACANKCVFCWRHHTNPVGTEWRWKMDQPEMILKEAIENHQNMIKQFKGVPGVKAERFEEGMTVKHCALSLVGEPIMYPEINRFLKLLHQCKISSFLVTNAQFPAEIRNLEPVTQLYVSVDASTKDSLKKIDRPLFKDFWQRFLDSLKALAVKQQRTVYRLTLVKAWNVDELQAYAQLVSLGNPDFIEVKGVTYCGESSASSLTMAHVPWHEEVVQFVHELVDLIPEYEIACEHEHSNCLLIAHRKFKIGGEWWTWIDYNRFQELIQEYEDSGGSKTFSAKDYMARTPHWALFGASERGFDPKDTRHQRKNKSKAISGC
UniProt P22314: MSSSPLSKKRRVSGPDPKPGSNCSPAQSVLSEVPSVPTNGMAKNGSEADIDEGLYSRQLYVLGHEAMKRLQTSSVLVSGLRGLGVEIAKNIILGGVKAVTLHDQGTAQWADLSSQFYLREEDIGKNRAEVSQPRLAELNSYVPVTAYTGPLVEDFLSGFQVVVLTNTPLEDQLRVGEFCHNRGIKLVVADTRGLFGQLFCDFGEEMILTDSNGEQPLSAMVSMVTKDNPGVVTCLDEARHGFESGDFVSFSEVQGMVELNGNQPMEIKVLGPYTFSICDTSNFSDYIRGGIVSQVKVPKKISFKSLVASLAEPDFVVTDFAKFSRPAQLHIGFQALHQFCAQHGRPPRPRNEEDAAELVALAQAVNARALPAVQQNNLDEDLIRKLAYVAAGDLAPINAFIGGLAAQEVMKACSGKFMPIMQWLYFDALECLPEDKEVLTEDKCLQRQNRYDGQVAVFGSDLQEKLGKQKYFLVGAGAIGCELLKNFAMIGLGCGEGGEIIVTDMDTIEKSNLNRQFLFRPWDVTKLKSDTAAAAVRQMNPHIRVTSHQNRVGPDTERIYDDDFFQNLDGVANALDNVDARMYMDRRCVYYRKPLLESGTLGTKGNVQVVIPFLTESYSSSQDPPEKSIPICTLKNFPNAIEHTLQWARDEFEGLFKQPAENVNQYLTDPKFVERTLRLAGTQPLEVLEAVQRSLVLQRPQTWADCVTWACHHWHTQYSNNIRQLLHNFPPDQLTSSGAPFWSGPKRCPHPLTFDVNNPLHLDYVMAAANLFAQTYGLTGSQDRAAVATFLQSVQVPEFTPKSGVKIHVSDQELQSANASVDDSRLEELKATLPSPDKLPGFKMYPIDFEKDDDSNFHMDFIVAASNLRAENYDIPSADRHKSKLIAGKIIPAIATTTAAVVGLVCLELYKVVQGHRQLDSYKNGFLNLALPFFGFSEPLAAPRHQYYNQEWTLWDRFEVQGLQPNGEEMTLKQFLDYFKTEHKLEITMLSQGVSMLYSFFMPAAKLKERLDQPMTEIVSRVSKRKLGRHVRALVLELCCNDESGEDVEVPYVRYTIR
UniProt Q13509, whole entry, looked up: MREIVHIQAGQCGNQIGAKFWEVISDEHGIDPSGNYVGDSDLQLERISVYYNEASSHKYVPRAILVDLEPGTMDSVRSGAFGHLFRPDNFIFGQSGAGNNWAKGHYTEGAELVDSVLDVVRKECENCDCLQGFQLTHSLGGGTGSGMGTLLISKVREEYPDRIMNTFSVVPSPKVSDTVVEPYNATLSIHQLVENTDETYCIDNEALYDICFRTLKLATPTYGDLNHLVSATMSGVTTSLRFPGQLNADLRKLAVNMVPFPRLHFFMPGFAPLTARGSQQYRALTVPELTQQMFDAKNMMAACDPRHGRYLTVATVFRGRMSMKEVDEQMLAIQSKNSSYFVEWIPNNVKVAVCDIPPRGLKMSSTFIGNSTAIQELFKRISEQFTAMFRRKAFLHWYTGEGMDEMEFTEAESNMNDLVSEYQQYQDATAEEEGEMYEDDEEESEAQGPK

Compound: CC1=C(C=C(C=C1)NC(=O)C2=CC(=CC=C2)N(C)C)NC(=O)C3=CC=C(C=C3)O
Test: log2 fold change, soluble protein after heating vs DMSO (PISA); higher = thermal stabilisation; K562 cells, 10 uM, 30 min; active = over 0.2 and 3.5 SD of the protein, either way, in both replicates (recomputed)
Procedure, shortened: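 K562 cells at 2×10^6 cells/mL were exposed to 10 μM compound for 30 min, then aliquots were heated for 3 min across 48°C-58°C, pooled, and extracted in PBS containing 0.5% NP-40 at 4°C. The supernatant after 21,000xg for 90 min was taken as soluble protein and measured by TMTpro 16plex LC-MS/MS with channel sums equalised. Thermal stability is reported relative to control samples, with values from duplicates. Fold changes are given on a log2 scale.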

Row | Target | log2 fold change
1 | TSPAN14 (UniProt Q8NG11) | inactive: -0.003
2 | UBE2J1 (UniProt Q9Y385) | inactive: -0.016
3 | UBE2H (UniProt P62256) | inactive: 0.051
4 | TUBA1C (UniProt Q9BQE3) | inactive: 0.026
5 | UBE2I (UniProt P63279) | inactive: -0.007
6 | UBAP2L isoform 1 (UniProt Q14157) | inactive: 0.035
7 | TTPAL (UniProt Q9BTX7) | inactive: 0
8 | TXNRD1 (UniProt Q16881) | inactive: 0.006
9 | TXNL1 (UniProt O43396) | inactive: -0.105
10 | TTC27 (UniProt Q6P3X3) | inactive: -0.017
11 | TTI2 (UniProt Q6NXR4) | inactive: -0.039
12 | UAP1L1 (UniProt Q3KQV9) | inactive: 0
13 | TXNIP (UniProt Q9H3M7) | inactive: 0.003
14 | UBAP1 isoform 4 (UniProt Q9NZ09) | inactive: -0.002
15 | UBAP2L isoform 5 (UniProt Q14157) | inactive: 0.036
16 | TSG101 (UniProt Q99816) | inactive: -0.011
17 | TUBA1B (UniProt P68363) | inactive: -0.005
18 | UBA52 (UniProt P62987) | inactive: 0.024
19 | UBE2G1 (UniProt P62253) | inactive: 0.045
20 | TYW1 (UniProt Q9NV66) | inactive: -0.017
21 | TXN2 (UniProt Q99757) | inactive: -0.018
22 | UBA1 (UniProt P22314) | inactive: -0.054
23 | UBA6 | inactive: -0.044
24 | TUBB3 (UniProt Q13509) | inactive: -0.012

Looked up one by one from the entries so far, two records:
Row | Target | log2 fold change
19 | UBE2G1 (UniProt P62253) | inactive: 0.045
2 | UBE2J1 (UniProt Q9Y385) | inactive: -0.016
